PubChem BioAssay AID1259308 – NCATS, 2017
The deposit covers about 59,000 reagents; below is a part drawn at random. About 1,510 of all reagents (2.6%) count as active. 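Calls use total luciferase alone and ignore viability, so some active siRNAs may act by altering cell number.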 Entries without a mark were called inactive. Reagents against one gene are numbered here. Not all columns of the deposit are shown. No sequences are given here.

Test: 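Genes whose loss raises luciferase production in HEK293 cells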 (primary screen)
Cell system: human HEK293 embryonic kidney cells stably expressing firefly luciferase (HEK-CMV-Luc2-Hygro)
Reagents: single siRNA against human genes, 0.8 pmol siRNA per well
Duration: 72 h
Detection: 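Luciferase light (ONE-Glo) measured on one replicate plate set and viability (CellTiter-Glo) on the other, scaled to a negative control siRNA, with robust z-scores and luciferase per cell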
Reading the numbers: total luciferase, z-score: higher = more reporter protein produced
Hit rule: 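Active when the median/MAD z-score for overall luciferase is greater than 3; a gene was taken forward for validation with new siRNAs if at least two of its three siRNAs passed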
Meaning of the calls: active = raised luciferase; inactive = no rise

{"Gene":"ASCL3","reagent":1,"total luciferase, z-score":-2.64}
{"Gene":"ASCL3","reagent":2,"total luciferase, z-score":1.63}
{"Gene":"ASCL3","reagent":3,"total luciferase, z-score":0.945}
{"Gene":"PPP2CA","reagent":1,"total luciferase, z-score":2.17}
{"Gene":"PPP2CA","reagent":2,"total luciferase, z-score":1.13}
{"Gene":"PPP2CA","reagent":3,"total luciferase, z-score":1.58}
{"Gene":"SLC52A3","reagent":1,"total luciferase, z-score":-0.988}
{"Gene":"SLC52A3","reagent":2,"total luciferase, z-score":-1.97}
{"Gene":"SLC52A3","reagent":3,"total luciferase, z-score":-0.398}
{"Gene":"GPR180","reagent":1,"total luciferase, z-score":0.19}
{"Gene":"GPR180","reagent":2,"total luciferase, z-score":-0.249}
{"Gene":"GPR180","reagent":3,"total luciferase, z-score":-0.423}
{"Gene":"LRRC28","reagent":1,"total luciferase, z-score":0.501}
{"Gene":"LRRC28","reagent":2,"total luciferase, z-score":-0.52}
{"Gene":"LRRC28","reagent":3,"total luciferase, z-score":-0.753}
{"Gene":"SGSM2","reagent":1,"total luciferase, z-score":-0.81}
{"Gene":"SGSM2","reagent":2,"total luciferase, z-score":-0.695}
{"Gene":"SGSM2","reagent":3,"total luciferase, z-score":-0.46}
{"Gene":"CALHM1","reagent":1,"total luciferase, z-score":-1.54}
{"Gene":"CALHM1","reagent":2,"total luciferase, z-score":2.37}
{"Gene":"CALHM1","reagent":3,"total luciferase, z-score":-1.02}
{"Gene":"ARFRP1","reagent":1,"total luciferase, z-score":0.293}
{"Gene":"ARFRP1","reagent":2,"total luciferase, z-score":0.446}
{"Gene":"ARFRP1","reagent":3,"total luciferase, z-score":-1.32}
{"Gene":"SCRG1","reagent":1,"total luciferase, z-score":0.0257}
{"Gene":"SCRG1","reagent":2,"total luciferase, z-score":-0.547}
{"Gene":"SCRG1","reagent":3,"total luciferase, z-score":2.95}
{"Gene":"ZCCHC8","reagent":1,"total luciferase, z-score":0.568}
{"Gene":"ZCCHC8","reagent":2,"total luciferase, z-score":0.0961}
{"Gene":"ZCCHC8","reagent":3,"total luciferase, z-score":-1.63}
{"Gene":"MRPL11","reagent":1,"total luciferase, z-score":1.17}
{"Gene":"MRPL11","reagent":2,"total luciferase, z-score":-0.62}
{"Gene":"MRPL11","reagent":3,"total luciferase, z-score":0.617}
{"Gene":"GPR19","reagent":1,"total luciferase, z-score":-0.299}
{"Gene":"GPR19","reagent":2,"total luciferase, z-score":0.176}
{"Gene":"GPR19","reagent":3,"total luciferase, z-score":-1.06}
{"Gene":"ST6GALNAC1","reagent":1,"total luciferase, z-score":-0.4}
{"Gene":"ST6GALNAC1","reagent":2,"total luciferase, z-score":0.362}
{"Gene":"ST6GALNAC1","reagent":3,"total luciferase, z-score":-0.229}
{"Gene":"PYROXD2","reagent":1,"total luciferase, z-score":0.903}
{"Gene":"PYROXD2","reagent":2,"total luciferase, z-score":1.35}
{"Gene":"PYROXD2","reagent":3,"total luciferase, z-score":0.17}

Sorted by “total luciferase, z-score” (descending): some entries from above.
{"Gene":"LRRC28","reagent":1,"total luciferase, z-score":0.501}
{"Gene":"GPR180","reagent":1,"total luciferase, z-score":0.19}
{"Gene":"GPR180","reagent":2,"total luciferase, z-score":-0.249}
{"Gene":"SLC52A3","reagent":3,"total luciferase, z-score":-0.398}
{"Gene":"GPR180","reagent":3,"total luciferase, z-score":-0.423}
{"Gene":"SLC52A3","reagent":1,"total luciferase, z-score":-0.988}
{"Gene":"SLC52A3","reagent":2,"total luciferase, z-score":-1.97}
